From US12576047B2, “Telomerase activating compounds for use in fertility and related applications” (Neuromagen Pharma Ltd, priority 2017, dated 2026)
Some of these results come from one statement about several compounds together.

System: ICR mice
Assay: Sperm count from the epididymis, with or without X-ray radiation
Format: in vivo, mouse
Conditions: X-ray irradiated mice, 12 hrs post-radiation
Protocol: Toward this end, ICR mice (3 months old) were injected with 6 mg/kg of Compound 79, Compound 68 or Compound 70, or mice were subjected to X-ray radiation (2.5 Gy) followed by immediately injection of the respective compounds. Control mice were untreated or vehicle treated with or without exposure to X-ray radiation. […] Testes were also taken for immunohistochemical and immunofluorescence analysis with various spermatogenesis markers. Epididymis was also taken for sperm count.

COc1c(Br)cc(C(C)(c2cc(Br)c(OC)c(Br)c2)c2cc(Br)c(OC)c(Br)c2)cc1Br [Compound 70]
increase of numbers of sperms in the epididymis: 1.5-2.7 folds
